The assay has as its target T1, Flag-tagged wild-type FBXO32 (UniProt Q969P5).
T1 sequence: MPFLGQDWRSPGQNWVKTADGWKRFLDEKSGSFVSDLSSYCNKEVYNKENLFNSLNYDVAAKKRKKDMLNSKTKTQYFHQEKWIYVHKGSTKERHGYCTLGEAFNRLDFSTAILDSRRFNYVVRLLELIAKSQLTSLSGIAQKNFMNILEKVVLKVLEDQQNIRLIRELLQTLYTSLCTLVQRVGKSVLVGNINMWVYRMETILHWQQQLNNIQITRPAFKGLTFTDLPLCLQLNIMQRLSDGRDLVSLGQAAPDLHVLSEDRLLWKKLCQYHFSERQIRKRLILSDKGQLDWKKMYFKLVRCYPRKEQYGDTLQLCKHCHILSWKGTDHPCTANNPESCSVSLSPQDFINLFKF
The assay can be described thus: co-IP; exogenous: HEK293T cells transfected with the indicated plasmids (Myc-PTEN, Flag-FBXO32 wild type or deletion mutants), MG132 (10 uM, 6 h in Fig. 5C), RIPA lysate, antibody 2 h at room temperature, Protein A/G PLUS-Agarose overnight at 4 °C, immunoblot.

By UniProt entry, the sequences of proteins in these tests, tags left out.
UniProt P63208: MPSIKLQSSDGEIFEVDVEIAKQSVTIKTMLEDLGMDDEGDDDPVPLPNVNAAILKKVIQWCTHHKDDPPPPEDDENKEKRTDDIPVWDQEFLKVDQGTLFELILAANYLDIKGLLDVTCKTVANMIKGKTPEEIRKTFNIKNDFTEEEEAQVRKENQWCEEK

Results are given in words; binding and its absence hold for the method and conditions named. Binding seen in cells or lysates may run through a third protein. Some results given as binding are weak or reduced against the parent protein; the word gives no strength. Sequences can lack the tags named with a protein.

For the substance SKP1 (from UniProt P63208 1-163), the binding entry was “binds”.
